# Assay results as given in PubChem BioAssay (EPA / NIEHS).
# Protein sequences, listed by entry. Tags and fused reporters are not part of them. Lines headed by an entry give the natural chain unless they say otherwise; changes in a name come on top.
# UniProt Q9UNQ0: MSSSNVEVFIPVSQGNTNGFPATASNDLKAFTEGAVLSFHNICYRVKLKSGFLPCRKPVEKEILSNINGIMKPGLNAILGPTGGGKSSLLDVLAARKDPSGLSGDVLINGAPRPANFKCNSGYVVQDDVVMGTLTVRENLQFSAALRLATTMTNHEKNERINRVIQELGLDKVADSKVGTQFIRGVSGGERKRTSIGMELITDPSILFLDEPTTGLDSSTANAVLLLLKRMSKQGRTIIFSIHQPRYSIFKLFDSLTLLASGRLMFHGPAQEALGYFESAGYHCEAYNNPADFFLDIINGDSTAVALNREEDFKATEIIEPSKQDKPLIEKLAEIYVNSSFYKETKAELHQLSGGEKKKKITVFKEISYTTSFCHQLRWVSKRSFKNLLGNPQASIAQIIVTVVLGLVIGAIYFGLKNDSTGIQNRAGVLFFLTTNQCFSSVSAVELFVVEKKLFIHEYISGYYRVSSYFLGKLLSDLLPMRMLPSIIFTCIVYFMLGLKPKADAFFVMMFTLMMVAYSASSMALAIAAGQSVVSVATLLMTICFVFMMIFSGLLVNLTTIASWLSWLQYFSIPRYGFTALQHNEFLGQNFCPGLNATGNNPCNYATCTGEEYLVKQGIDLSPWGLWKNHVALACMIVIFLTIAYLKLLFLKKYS
# UniProt P04406: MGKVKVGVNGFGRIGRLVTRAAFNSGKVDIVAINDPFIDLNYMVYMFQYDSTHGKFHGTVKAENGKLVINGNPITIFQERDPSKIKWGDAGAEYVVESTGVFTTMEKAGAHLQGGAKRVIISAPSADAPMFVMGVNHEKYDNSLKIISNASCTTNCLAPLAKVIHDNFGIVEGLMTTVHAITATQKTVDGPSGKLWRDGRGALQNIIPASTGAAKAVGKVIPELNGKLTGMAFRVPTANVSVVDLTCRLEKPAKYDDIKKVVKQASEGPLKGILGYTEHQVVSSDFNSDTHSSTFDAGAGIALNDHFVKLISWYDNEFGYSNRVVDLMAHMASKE
# UniProt P11712, whole entry, looked up: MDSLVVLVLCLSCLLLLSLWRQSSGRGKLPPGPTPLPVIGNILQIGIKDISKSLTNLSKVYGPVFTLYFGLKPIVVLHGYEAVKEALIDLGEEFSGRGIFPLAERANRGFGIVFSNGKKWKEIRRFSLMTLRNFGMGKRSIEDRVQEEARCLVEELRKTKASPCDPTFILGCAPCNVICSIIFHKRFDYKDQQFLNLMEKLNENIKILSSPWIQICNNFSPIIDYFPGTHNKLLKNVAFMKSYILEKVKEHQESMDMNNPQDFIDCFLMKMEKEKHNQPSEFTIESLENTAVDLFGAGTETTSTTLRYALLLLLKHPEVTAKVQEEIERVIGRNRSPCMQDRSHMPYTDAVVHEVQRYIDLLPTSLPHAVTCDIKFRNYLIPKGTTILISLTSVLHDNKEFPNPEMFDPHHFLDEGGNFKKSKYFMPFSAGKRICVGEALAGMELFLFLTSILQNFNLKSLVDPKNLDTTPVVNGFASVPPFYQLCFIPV
# Inconclusive means that the source gave no clear call. Such entries were picked first, then a sample of the others. For part of these data: Where the call is inconclusive, the potency comes from a doubtful curve fit. Calls of active or inactive are those of the source. How the source made its calls: active means hit-call score of the fitted dose curve at least 0.9, where 1 is the maximum; inconclusive means response in the unintended direction; inactive means score below 0.9.
# What was measured:
# [1] = Tanguay_ZF_120hpf_EYE_legacy: (Legacy) Oregon State University Tanguay Lab 120 Hour Post-fertilization zebrafish Assay for Eye Malformation (AID 2283636)
# How it was run: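 Dechorionated wild-type Tropical 5D zebrafish embryos were exposed statically from 6 hpf, one per well, to 120 hpf at 28C in sealed, foil-covered plates with 0.64% DMSO. Eye malformation was scored present/absent by brightfield microscopy against DMSO controls.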
# [2] = Tanguay_ZF_120hpf_OTIC_legacy: (Legacy) Oregon State University Tanguay Lab 120 Hour Post-fertilization zebrafish Assay for Otic Vesicle Malformation (AID 2283639)
# How it was run: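 Tropical 5D wild-type zebrafish embryos were exposed statically in sealed, foil-covered plates at 28C until 120 hpf, with 0.64% (vol/vol) DMSO final. Otic vesicle malformation was scored present/absent by brightfield microscopy, with DMSO as baseline.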
# [3] = Tanguay_ZF_120hpf_BRAI_legacy: (Legacy) Oregon State University Tanguay Lab 120 Hour Post-fertilization zebrafish Assay for Brain Malformation (AID 2283641)
# How it was run: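 Wild-type 5D larvae, static waterborne exposure to 120 hpf, 28C, 0.64% v/v DMSO. Brightfield scoring of brain defects, binary; dead embryos excluded. Positive ctrl 5uM trimethyltin chloride.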
# [4] = Tanguay_ZF_120hpf_SOMI_legacy: (Legacy) Oregon State University Tanguay Lab 120 Hour Post-fertilization zebrafish Assay for Somite Malformation (AID 2283647)
# How it was run: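 Read-out: presence or absence of somite malformation in 120 hpf larvae, gain-of-signal relative to DMSO baseline. Embryos lacked chorion (pronase, 4 hpf) and were exposed statically from 6 hpf at 28C; dead larvae not scored.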
# [5] = Tanguay_ZF_120hpf_PFIN_legacy: (Legacy) Oregon State University Tanguay Lab 120 Hour Post-fertilization zebrafish Assay for Pectoral Fin Malformation (AID 2283648);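 further: each larva judged yes or no for fin defect by brightfield with dead larvae skipped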
# How it was run: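 Tropical 5D wild-type embryos, dechorionated with pronase at 4 hpf, were placed singly in wells at 6 hpf and statically exposed until 120 hpf at 28C, sealed and dark, with 0.64% (vol/vol) final DMSO; pectoral fin malformation scored present/absent.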
# [6] = Tanguay_ZF_120hpf_CFIN_legacy: (Legacy) Oregon State University Tanguay Lab 120 Hour Post-fertilization zebrafish Assay for Caudal Fin Malformation (AID 2283649)
# How it was run: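 Binary presence or absence of caudal fin malformation at 120 hpf, read by brightfield microscopy, with DMSO as baseline. Larvae came from 5D wild-type embryos exposed statically from 6 hpf at 28C after pronase dechorionation.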
# [7] = Tanguay_ZF_120hpf_PIG_legacy: (Legacy) Oregon State University Tanguay Lab 120 Hour Post-fertilization zebrafish Assay for Pigmentation Malformation (AID 2283650)
# How it was run: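 Tropical 5D wild-type zebrafish embryos, dechorionated with pronase at 4 hpf, were exposed singly from 6 hpf to 120 hpf statically at 28C in sealed, dark plates with 0.64% DMSO; pigmentation scored present/absent by brightfield microscopy, fitted against DMSO.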
# [8] = read-out: Broad substrate specificity ATP-binding cassette transporter ABCG2 (Homo sapiens) (UniProt Q9UNQ0); experiment: CLD_ABCG2_6hr: CellzDirect (CLD) Gene Expression Assay for ABC Transporter (ABCG2) at 6 hours (AID 2283660)
# How it was run: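 Primary human hepatocytes dosed daily with chemicals at multiple concentrations (0.2% DMSO vehicle), harvested 6 h after dosing. ABCG2 mRNA induction read by quantitative nuclease protection assay (qNPA) chemiluminescence; gain of signal fitted against DMSO baseline.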
# [9] = read-out: alkyl and aryl transferase (GSTA2), GSTA2 (gene 2939); experiment: CLD_GSTA2_6hr: CellzDirect (CLD) Gene Expression Assay for alkyl and aryl transferase (GSTA2) at 6 hours (AID 2283666)
# How it was run: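 Primary human hepatocytes from two donor preparations were dosed daily with fresh compound at multiple concentrations, 0.2% DMSO vehicle. GSTA2 mRNA was measured at 6 hours by qNPA chemiluminescence; induction fitted relative to DMSO, with cytotoxicity flagged morphologically.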
# [10] = read-out: organic anion transporter (SLCO1B1), SLCO1B1 (gene 10599); experiment: CLD_SLCO1B1_6hr: CellzDirect (CLD) Gene Expression Assay for organic anion transporter (SLCO1B1) at 6 hours (AID 2283668);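 further: active means mRNA induction above DMSO baseline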
# How it was run: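 Primary human hepatocytes dosed daily with test chemicals (multiple concentrations) in 0.2% DMSO vehicle; harvested at 6 h. SLCO1B1 mRNA quantified by qNPA chemiluminescence, fitted as gain-of-signal versus DMSO; cytotoxicity from phase-contrast morphology flagged alongside.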
# [11] = CLD_ACTIN_24hr: CellzDirect (CLD) Gene Expression Assay for Baseline Control (Actin) at 24 hours (AID 2283670)
# How it was run: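 Primary human hepatocytes dosed over multiple concentrations with 0.2% DMSO vehicle; actin mRNA measured at 24 h by qNPA chemiluminescence. Background control endpoint, fitted as gain of signal versus DMSO.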
# [12] = CLD_ACTIN_6hr: CellzDirect (CLD) Gene Expression Assay for Baseline Control (Actin) at 6 hours (AID 2283676)
# How it was run: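 Primary human hepatocytes dosed with fresh chemical solutions (vehicle 0.2% DMSO), harvested at 6 h. Actin mRNA quantified by quantitative nuclease protection assay with chemiluminescent read-out, as background control relative to DMSO.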
# [13] = read-out: Glyceraldehyde-3-phosphate dehydrogenase (Homo sapiens) (UniProt P04406); experiment: CLD_GAPDH_6hr: CellzDirect (CLD) Gene Expression Assay for Baseline Control (Glyceraldehyde 3-phosphate dehydrogenase) at 6 hours (AID 2283681);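 further: active means increased signal relative to DMSO vehicle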
# How it was run: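 Primary human hepatocytes from two donor preparations, dosed at multiple concentrations with 0.2% DMSO vehicle; GAPDH mRNA measured 6 h after dosing by chemiluminescent quantitative nuclease protection assay (qNPA) on denatured lysates. Serves as background control; cytotoxicity annotated by morphology.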
# [14] = read-out: HMG-CoA synthase (HMGCS2), HMGCS2 (gene 3158); experiment: CLD_HMGCS2_6hr: CellzDirect (CLD) Gene Expression Assay for HMG-CoA synthase (HMGCS2) at 6 hours (AID 2283682);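 further: actives raise HMGCS2 transcript above the 0.2% DMSO vehicle baseline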
# How it was run: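 Primary human hepatocytes dosed daily with fresh chemical, 0.2% DMSO vehicle; HMGCS2 mRNA measured at 6 h by qNPA chemiluminescence. Gain of signal fitted against DMSO; cytotoxicity flagged from phase-contrast morphology.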
# [15] = read-out: Cytochrome P450 2C9 (Homo sapiens) (UniProt P11712); experiment: CLD_CYP2C9_24hr: CellzDirect (CLD) Gene Expression Assay for xenobiotic metabolism (CYP2C9) at 24 hours (AID 2283688)
# How it was run: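 Primary human hepatocytes from two donor preparations, dosed daily for two days at multiple concentrations; vehicle 0.2% DMSO. CYP2C9 mRNA induction at 24 h measured by qNPA chemiluminescence relative to DMSO; cytotoxicity annotated from morphology.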
# [16] = read-out: organic anion transporter (SLCO1B1), SLCO1B1 (gene 10599); experiment: CLD_SLCO1B1_24hr: CellzDirect (CLD) Gene Expression Assay for organic anion transporter (SLCO1B1) at 24 hours (AID 2283690)
# How it was run: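 Primary human hepatocytes (two donor preparations) dosed daily for two days with chemicals at multiple concentrations, 0.2% DMSO vehicle. SLCO1B1 mRNA at 24 h measured by qNPA chemiluminescence; induction fitted relative to DMSO.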
# [17] = read-out: HMG-CoA synthase (HMGCS2), HMGCS2 (gene 3158); experiment: CLD_HMGCS2_24hr: CellzDirect (CLD) Gene Expression Assay for HMG-CoA synthase (HMGCS2) at 24 hours (AID 2283691)
# How it was run: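 Primary human hepatocytes from two donor preparations, dosed daily with fresh solutions; vehicle 0.2% DMSO, 24 h harvest. HMGCS2 mRNA quantified by qNPA with S1 nuclease digestion and chemiluminescence; gain fitted versus DMSO, cytotoxicity annotated by morphology.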
# [18] = read-out: Glyceraldehyde-3-phosphate dehydrogenase (Homo sapiens) (UniProt P04406); experiment: CLD_GAPDH_24hr: CellzDirect (CLD) Gene Expression Assay for Baseline Control (Glyceraldehyde 3-phosphate dehydrogenase) at 24 hours (AID 2283692)
# How it was run: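 Primary human hepatocytes (two donor preparations) dosed daily for two days, 0.2% DMSO vehicle; GAPDH mRNA measured at 24 h by qNPA chemiluminescence as a background control, gain-of-signal fitted against DMSO.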
# [19] = read-out: ABC Transporter (ABCB11), ABCB11 (gene 8647); experiment: CLD_ABCB11_48hr: CellzDirect (CLD) Gene Expression Assay for ABC Transporter (ABCB11) at 48 hours (AID 2283697)
# How it was run: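 Primary human hepatocytes from two donor preparations dosed daily for two days at multiple concentrations; 0.2% DMSO vehicle. ABCB11 mRNA at 48 h by quantitative nuclease protection assay, chemiluminescence; fitted for induction versus DMSO.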
# [20] = read-out: xenobiotic metabolism (CYP1A2), CYP1A2 (gene 1544); experiment: CLD_CYP1A2_48hr: CellzDirect (CLD) Gene Expression Assay for xenobiotic metabolism (CYP1A2) at 48 hours (AID 2283703)
# How it was run: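 Primary human hepatocytes from two donor preparations were dosed daily for two days at multiple concentrations in 0.2% DMSO vehicle. CYP1A2 mRNA was measured at 48 hours by chemiluminescent quantitative nuclease protection assay, with gain of signal fitted versus DMSO and cytotoxicity annotated from morphology.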
# [21] = read-out: Broad substrate specificity ATP-binding cassette transporter ABCG2 (Homo sapiens) (UniProt Q9UNQ0); experiment: CLD_ABCG2_48hr: CellzDirect (CLD) Gene Expression Assay for ABC Transporter (ABCG2) at 48 hours (AID 2283704);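 further: potency for induction of ABCG2 mRNA above the DMSO baseline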
# How it was run: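 Primary human hepatocytes from two donors, dosed daily for 2 days, 0.2% DMSO vehicle, several concentrations. ABCG2 mRNA at 48 h by qNPA chemiluminescence, gain fitted versus DMSO; cytotoxicity flagged by morphology.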
# [22] = read-out: Glyceraldehyde-3-phosphate dehydrogenase (Homo sapiens) (UniProt P04406); experiment: CLD_GAPDH_48hr: CellzDirect (CLD) Gene Expression Assay for Baseline Control (Glyceraldehyde 3-phosphate dehydrogenase) at 48 hours (AID 2283706)
# How it was run: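 Primary human hepatocytes dosed daily for two days with fresh chemical at multiple concentrations, 0.2% DMSO vehicle; GAPDH mRNA measured at 48 h by quantitative nuclease protection assay with chemiluminescence, fitted upward relative to DMSO as background control.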
# [23] = read-out: organic anion transporter (SLCO1B1), SLCO1B1 (gene 10599); experiment: CLD_SLCO1B1_48hr: CellzDirect (CLD) Gene Expression Assay for organic anion transporter (SLCO1B1) at 48 hours (AID 2283707)
# How it was run: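 Primary human hepatocytes from two donor preparations dosed daily for two days with multiple concentrations, 0.2% DMSO vehicle. SLCO1B1 mRNA at 48 h by quantitative nuclease protection assay, chemiluminescence; gain-of-signal fitted versus DMSO.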
# [24] = read-out: HMG-CoA synthase (HMGCS2), HMGCS2 (gene 3158); experiment: CLD_HMGCS2_48hr: CellzDirect (CLD) Gene Expression Assay for HMG-CoA synthase (HMGCS2) at 48 hours (AID 2283711)
# How it was run: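 Primary human hepatocytes from two donors dosed daily for two days, 0.2% DMSO vehicle. HMGCS2 mRNA measured 48 h after dosing by quantitative nuclease protection assay with chemiluminescent read-out; induction fitted relative to DMSO, cytotoxicity flagged by microscopy.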
structure (smiles),measurement,setting,value
CCOC(=O)C(Cl)Cc1cc(-n2nc(C)n(C(F)F)c2=O)c(F)cc1Cl (centres undefined),AC50,[1],active: 1.7 µM
same,AC50,[2],active: 1.82 µM
same,AC50,[3],active: 2.91 µM
same,AC50,[4],active: 2.22 µM
same,AC50,[5],active: 2.19 µM
same,AC50,[6],active: 5.09 µM
same,AC50,[7],active: 1.88 µM
same,AC50,[8],inconclusive: 0.11 µM
same,AC50,[9],inconclusive: 20 µM
same,AC50,[10],inconclusive: 20 µM
same,AC50,[11],inconclusive: 37.6 µM
same,AC50,[12],inconclusive: 3.97 µM
same,outcome,[13],inactive
same,AC50,[14],inconclusive: 20 µM
same,outcome,[15],inactive
same,AC50,[16],inconclusive: 20 µM
same,AC50,[17],inconclusive: 0.548 µM
same,AC50,[18],inconclusive: 20 µM
same,AC50,[19],inconclusive: 1.35 µM
same,AC50,[20],inconclusive: 3.87 µM
same,AC50,[21],inconclusive: 3.97 µM
same,AC50,[22],inconclusive: 20 µM
same,AC50,[23],inconclusive: 3.02 µM
same,AC50,[24],inconclusive: 0.0004 µM

# In a second layout: entries from further up
structure (smiles) | measurement | setting | value
CCOC(=O)C(Cl)Cc1cc(-n2nc(C)n(C(F)F)c2=O)c(F)cc1Cl (centres undefined) | AC50 | [7] | active: 1.88 µM
same | AC50 | [8] | inconclusive: 0.11 µM
